System: HDAC4
Assay: Nuclear export of Flag-HDAC4 in cardiomyocytes (NRVMs), immunofluorescence
Type: cell-based, rat
Conditions: adenoviral Flag-HDAC4, inhibitor pretreatment 30 min, PE 4 hrs, Stauro 500 nmol/l, KN93 5 μmol/l, KN62 10 μmol/l, AIPII-2 500 nmol/l, Bis 2.5 μmol/l, Gö6976 200 nmol/l, H89 1 μmol/l
Source text: Cardiomyocyte culture and adenoviral infection. NRVMs were isolated from 1-2 day Sprague Dawley rats. For adenovirus production, cDNAs encoding FLAG-tagged HDAC4 wild-type or a mutant containing alanines in place of serines 246, 467 and 632 (S/A) were subcloned into the pACCMV vector and co-transfected with pJM17 into 293 cells. Primary lysates were used to re-infect 293 cells and viral plaques were obtained using the agar overlay method. The production of adenoviral GFP-HDAC5 was described previously 18. NRVMs were infected 24 h after plating, starved for 4 h, and stimulated with PE or Iso for the indicated time period. In experiments with kinase inhibitors, NRVMs were pretreated with the inhibitor 30 min prior stimulation. For assessing cardiomyocyte hypertrophy, NRVMs were starved for 24 h and stimulated with PE for another 24 hrs. Subcellular localization of Flag-HDAC4 and cardiomyocyte hypertrophy, as assessed by sarcomeric organization, was determined by indirect immunofluorescence.
Indirect Immunofluorescence. COS cells were grown on glass coverslips, fixed in paraformaldehyde (4%), permeabilized in 0.1% Triton-X-100 and blocked in PBS containing goat serum (5%). Primary antibodies against FLAG (monoclonal or rabbit; Sigma), Myc (polyclonal, A-14; Santa Cruz), or HA (polyclonal, Y-11; Santa Cruz) were used at a dilution of 1:200. […]

CN[C@@H]1C[C@H]2O[C@@](C)([C@@H]1OC)n1c3ccccc3c3c4c(c5c6ccccc6n2c5c31)C(=O)NC4 [staurosporine] was tested, and the “Effect of kinase inhibitor on PE-induced nuclear export of HDAC4” value was “markedly reduced” and the “Effect of kinase inhibitor on PE-induced nuclear export of HDAC4” value (listed as Stauro) was “effective in blocking”.

— patent publication US7863414B2, “Methods of treatment and uses for CaMKII and its interaction with HDACs and calpain” (The Board of Regents of the University of Texas Systems, priority 2005, dated 2011)
